The record followed here is PubChem BioAssay AID1508600 (Functional Genomics Laboratory (NCATS/FGL), 2020).

Out of some 53,000 sequences screened, about 3,700 (7%) were called active.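 The calls were made as follows: active = gene knockdowns whose robust z-score for IL-1 alpha signal is at least 2 or at most -2, so actives lie on both sides; inactive = the rest.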 This is one part of the list.

The test can be described thus: Components of the Cytosolic LPS Sensing Pathway: Gene Identification via Genome-wide siRNA Screen.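 Also: robust z of the log signal after scaling to non-targeting control siRNA wells of the plate.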 Particulars: RAW264.7 macrophages, IL-1a HTRF, actives lie on both sides, screened at 100 nM (by protocol), cells primed 5 h with Pam3CSK4 first. The gist of the method: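 RAW264.7; siRNA 100 nM final, RNAiMAX, 48h 37 degrees C; Pam3CSK4 5 h; LipidA + TransIT-TKO 24 h; IL-1a HTRF; CellTiter-Glo viability; robust z vs negative-control median.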
For the sequence GCUGUACAAUAACAGUAUGTT against Gde1, the z-score is inactive: 1.06.
The result for GGAAGACACAUUUUUCCAUTT against Serpinb9e reads inactive: 0.733.
The result for GGCUCCAACUGCUUUCAUCTT against Zswim9 reads inactive: 0.0664.
Take GGAAGAUGUGGAAAAAGCGTT against Smarca2: the z-score is inactive: -0.916.
For GCGUAUAGGUGAUGUACAGTT against Smad3, the z-score is active: 2.28.
In the case of CCUAAAUCUAUGAUGAAGATT against Cct3, the z-score is inactive: -0.861.
As for CGAGAAUCUGCCUCAAUUGTT against Kti12, the figure is inactive: 1.24; as for UAUAAUACUUCCCUUGCUGTT against Sox15, inactive: 0.165; as for GGUCUGUACUUGUUUAGAATT against Vwa3b, inactive: 0.42.
The result for GGCAUUACGUCAUGUACUATT against Tle5 reads inactive: 0.282; that for GCACUCAUUGCCAGGGUCATT against Pycard, active: -2.54.
As for GCAGUUUUCGCUCUGGUCATT against Ppbp, the figure is inactive: 0.807.
In the case of GGAGUUAAAUAAACACUGATT against Rnf151, the z-score is inactive: 0.468.
The result for “CCUAUCAAAGAUCAAUAGCTT against 2610507B11Rik” reads inactive: 0.251; that for GGACUGUCAUCUUCCUCAGTT against Ston2, active: -2.97.
In the case of GCUCAGCUAGCAGAAAUUCTT against Nlrp2, the z-score is inactive: -1.76.
Consider GGGAAGCAAAUCUAUACCCTT against Tnfrsf11a, for which the z-score was inactive: -0.243.
As for GGUGACAAGGACGAGAUAATT against Synpo2, the figure is inactive: -0.739; as for GGUUGGCAGCGUGGUAACUTT against Pear1, inactive: -1.61; as for CUGGAUGCAUUAACUUCUUTT against Olfr1219, inactive: 0.326.
As to GGUGUCUCCCUUUCUCCUUTT against Rpp14, the z-score was inactive: -1.43.
Regarding GGCAGUAUCAAAGAAAUUGTT against Rps6ka3, the z-score was active: 3.43.
With “GGCUUUCGAAGGCAGAAGATT against 4930486L24Rik”, the z-score is inactive: 0.822.
As for GGUCUGUACUUUUCUAGUGTT against Olfr394, the figure is inactive: -0.374; as for GCCUAUGAUCUGGUUAGACTT against Septin11, inactive: -0.0526; as for GGAUAUGAAACACCAGAUCTT against Naip2, inactive: -1.89.
GGUGUUGGAUCAUGAUGUUTT against Nf2: the z-score is active: -2.14.
As for GGCGUGCGAUAACACGCAATT against Med18, the figure is inactive: 1.05; as for GGAGAAGGAGAGCUUCAUCTT against Mphosph6, inactive: 1.05.
